Experimental data reported in publication PMC2367452.
Construct, isoform or probe ends are uncertain for at least one entry.

The chains behind the UniProt entries cited, without tags or fusion partners. Residues count along the entry.
UniProt Q62424, 320-386: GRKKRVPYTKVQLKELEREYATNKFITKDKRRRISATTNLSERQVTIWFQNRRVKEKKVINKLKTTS

Molecular target: HOXA13 DNA-binding domain peptide (A13-DBD) (UniProt Q62424)
Experiment: EMSA
Settings: concentration-dependent; EMSA: Promega Gel Shift Binding System; recombinant protein; label: 32P; probe letters rebuilt from the primers and the genome

| Sequence | binding result |
| --- | --- |
| CTAATCCCAGCCCTGCTGTAACCATTCCCAAGTTATCCTGTTTCTTCATTTTTTTTATTAAATTATTTTATTTATTTAATTACAAATGTTGCCCTCCTTCCCCGTCCCTGCTCCCAGAGTTTGTTATCCACTCCCCTTCCC (double strand) [Tie2 ChIP-positive PCR amplicon] | binds |
| CGCGGGCTTCTCTACTCTTATTATTAAAGGATCCCCCGGAACGTGTTTACGTTGAGCCTTGTAAACTTCCTGCCCCGGACTTTGCCATCTCTCAGGAAATCAGAACCTGCGCTTGTAAAAGG (double strand) [Foxf1 ChIP-positive PCR amplicon] | binds |
